This series is described as follows: Measurement of logP values by HPLC on reversed phase columns (EEC directive 79/831 Annex V.A8). In kind it is physicochemical. Particulars: method [a].

Molecules are shown by their SMILES.

For `Cc1nn(C)c(F)c1C(=O)Nc1cccc2c1CCC(C)(C)C2` [Example 44], the “LogP^[a]” value is 3.37^[a].
